The results in this text go back to PMC9106661.

Amino acid sequences for entries named in this document (tags omitted).
UniProt Q96H55: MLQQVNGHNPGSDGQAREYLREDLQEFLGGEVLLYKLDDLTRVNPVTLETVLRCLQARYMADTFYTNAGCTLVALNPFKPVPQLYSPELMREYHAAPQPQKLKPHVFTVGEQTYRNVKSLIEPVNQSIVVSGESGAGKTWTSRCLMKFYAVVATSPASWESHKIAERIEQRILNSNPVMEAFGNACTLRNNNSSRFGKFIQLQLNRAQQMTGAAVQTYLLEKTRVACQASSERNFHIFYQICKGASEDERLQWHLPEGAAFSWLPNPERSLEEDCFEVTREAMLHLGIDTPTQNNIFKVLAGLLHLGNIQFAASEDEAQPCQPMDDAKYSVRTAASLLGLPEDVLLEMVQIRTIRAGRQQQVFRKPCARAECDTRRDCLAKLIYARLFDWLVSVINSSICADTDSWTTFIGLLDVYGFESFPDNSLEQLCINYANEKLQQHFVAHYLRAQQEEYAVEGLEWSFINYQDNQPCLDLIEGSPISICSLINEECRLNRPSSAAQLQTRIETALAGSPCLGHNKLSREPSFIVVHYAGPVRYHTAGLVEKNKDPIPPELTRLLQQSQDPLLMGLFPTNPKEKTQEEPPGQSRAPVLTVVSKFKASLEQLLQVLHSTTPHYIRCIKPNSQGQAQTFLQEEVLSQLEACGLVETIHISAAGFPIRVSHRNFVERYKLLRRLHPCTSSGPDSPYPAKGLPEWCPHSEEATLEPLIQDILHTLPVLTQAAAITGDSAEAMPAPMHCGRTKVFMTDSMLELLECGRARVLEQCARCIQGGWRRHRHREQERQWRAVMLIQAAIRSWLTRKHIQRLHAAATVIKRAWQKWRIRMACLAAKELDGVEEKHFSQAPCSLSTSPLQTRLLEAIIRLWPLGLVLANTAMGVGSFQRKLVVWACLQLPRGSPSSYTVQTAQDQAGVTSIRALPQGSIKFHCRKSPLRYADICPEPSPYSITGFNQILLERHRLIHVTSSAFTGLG

These are yes or no findings as the source states them, for the method shown. In cells and extracts the contact can be indirect. Here binding means that the protein was enriched with, or labelled near, the bait; the list need not be complete.

The target in this assay is Myosin 19 (human (endogenous in MDA-MB-231)) (UniProt Q96H55). Kind of assay: affinity purification with mass spectrometry; immunoprecipitation of Myo19 from cell lysate (IP lysis buffer: 150 mM NaCl, 25 mM Tris-HCl, 0.5% NP-40, pH 7.4), protein A/G beads, gel pieces analysed by mass spectrometry.

B1: Sam50 (protein, UniProt Q9Y512 1-469)
chain: MGTVHARSLEPLPSSGPDFGGLGEEAEFVEVEPEAKQEILENKDVVVQHVHFDGLGRTKDDIIICEIGDVFKAKNLIEVMRKSHEAREKLLRLGIFRQVDVLIDTCQGDDALPNGLDVTFEVTELRRLTGSYNTMVGNNEGSMVLGLKLPNLLGRAEKVTFQFSYGTKETSYGLSFFKPRPGNFERNFSVNLYKVTGQFPWSSLRETDRGMSAEYSFPIWKTSHTVKWEGVWRELGCLSRTASFAVRKESGHSLKSSLSHAMVIDSRNSSILPRRGALLKVNQELAGYTGGDVSFIKEDFELQLNKQLIFDSVFSASFWGGMLVPIGDKPSSIADRFYLGGPTSIRGFSMHSIGPQSEGDYLGGEAYWAGGLHLYTPLPFRPGQGGFGELFRTHFFLNAGNLCNLNYGEGPKAHIRKLAECIRWSYGAGIVLRLGNIARLELNYCVPMGVQTGDRICDGVQFGAGIRFL
Turning to B1, the binding entry is “binds”.

B2: Metaxin3 (protein, UniProt Q5HYI7 1-312)
chain: MAAPLELSCWGGGWGLPSVHSESLVVMAYAKFSGAPLKVNVIDNTWRGSRGDVPILTTEDDMVSQPAKILNFLRKQKYNADYELSAKQGADTLAYIALLEEKLLPAVLHTFWVESDNYFTVTKPWFASQIPFPLSLILPGRMSKGALNRILLTRGQPPLYHLREVEAQIYRDAKECLNLLSNRLGTSQFFFGDTPSTLDAYVFGFLAPLYKVRFPKVQLQEHLKQLSNLCRFCDDILSSYFRLSLGGISPAGQETVDANLQKLTQLVNKESNLIEKMDDNLRQSPQLPPRKLPTLKLTPAEEENNSFQRLSP
In the case of B2, the binding entry was “binds”.
